# Inconclusive means that the source gave no clear call. Such entries were picked first, then a sample of the others. Potencies beside an inconclusive call are fits to weak or partial responses and may not hold up. More than one record can exist for a structure, and the calls need not agree. Activity calls are given as the source filed them. Calls come from the whole dose curve; as a rule, active = well fitted inhibition curve with a large enough effect; inconclusive = small, poorly fitted or top-dose-only effect; inactive = no such curve, though single readings can be large or run the other way.
# Sequences of proteins named here, by UniProt entry; tags and fusion partners are left off. A change or cut given only in a name is not applied to a line headed by its entry.
# UniProt Q99549: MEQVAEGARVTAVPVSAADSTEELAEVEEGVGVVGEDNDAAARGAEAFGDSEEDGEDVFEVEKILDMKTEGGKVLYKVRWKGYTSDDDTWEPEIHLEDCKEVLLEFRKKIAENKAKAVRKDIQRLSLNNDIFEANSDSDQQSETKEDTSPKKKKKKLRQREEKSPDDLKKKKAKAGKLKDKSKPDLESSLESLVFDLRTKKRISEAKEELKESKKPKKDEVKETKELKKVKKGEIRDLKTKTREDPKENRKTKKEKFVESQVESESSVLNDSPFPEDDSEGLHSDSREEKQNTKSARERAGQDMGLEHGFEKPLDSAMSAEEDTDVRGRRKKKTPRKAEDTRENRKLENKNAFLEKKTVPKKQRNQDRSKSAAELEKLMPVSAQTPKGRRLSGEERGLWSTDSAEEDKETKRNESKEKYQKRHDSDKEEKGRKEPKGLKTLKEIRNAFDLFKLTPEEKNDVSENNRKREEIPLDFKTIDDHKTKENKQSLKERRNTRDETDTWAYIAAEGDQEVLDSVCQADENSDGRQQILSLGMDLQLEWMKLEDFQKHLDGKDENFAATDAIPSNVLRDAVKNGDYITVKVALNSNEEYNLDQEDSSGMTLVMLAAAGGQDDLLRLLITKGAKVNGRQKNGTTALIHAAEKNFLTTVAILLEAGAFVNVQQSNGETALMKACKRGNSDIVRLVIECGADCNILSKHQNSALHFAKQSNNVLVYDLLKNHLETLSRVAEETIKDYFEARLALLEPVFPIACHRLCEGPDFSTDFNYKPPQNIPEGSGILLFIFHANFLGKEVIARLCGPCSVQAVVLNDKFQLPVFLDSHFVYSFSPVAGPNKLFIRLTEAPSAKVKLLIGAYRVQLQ
# Target: M-phase phosphoprotein 8 (Homo sapiens) (UniProt Q99549)
# Experiment: qHTS Validation Assay for Inhibitors for MPP8 Chromodomain Interactions with Methylated Histone Tails (AID 488949); note: nearly all actives have a fitted effect of over 55% in size
# Details: AlphaScreen MPP8 binding to H3K9me3 peptide; series mostly up to 57.1 µM
# Procedure, shortened: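 AlphaScreen read-out: streptavidin donor and nickel chelate acceptor beads (final 10 ug/mL), 30 min in the dark at RT. Complex of 50 nM MPP8 and 50 nM b-H3(1-18)K9me3 peptide had been exposed to compounds for 30 min beforehand.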
# Potency is the fitted concentration of half-maximal effect.
row,SMILES,Potency
1,O=c1c(-c2ccc(O)cc2)coc2cc(O)cc(O)c12,"inconclusive: 56.2 µM [inhibitor, partial curve]"
2,O=c1[nH]c2ccccc2n1CCCN1CCN(C(c2ccccc2)c2ccccc2)CC1,"inconclusive: 70.8 µM [inhibitor, partial curve, poor fit]"
3,C#CCN(C)Cc1ccccc1,inactive
4,Oc1ccc(C2CNCc3sccc32)cc1O (centres undefined),"inconclusive: 79.4 µM [inhibitor, single point]"
5,Cc1nn(-c2ccccc2)c(C)c1/C=N/N1CCN(Cc2ccccc2)CC1,"inconclusive: 23.8 µM [inhibitor, single point]"
6,Cc1ccc(O)c(N=Nc2ccccc2)n1,active: 39.8 µM
7,N[C@H]1CONC1=O,inactive
8,CN1CCc2cc(NC(=O)Nc3cccnc3)ccc21,"inconclusive: 79.4 µM [inhibitor, single point]"
9,CCc1ccc(/C=C2/SC(=S)NC2=O)cc1,"inconclusive: 23.8 µM [inhibitor, single point]"

# Source: PubChem BioAssay (NCATS)
